AC50 and cell number change data for 57 molecules are collected here from PubChem BioAssay AID2685 (National Center for Advancing Translational Sciences (NCATS), 2010).

By AC50 is commonly meant the concentration at which the activity in the assay is half-maximal.

The nature of this assay: qHTS Assay for Lipid Storage Modulators in Drosophila S3 Cells.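 For cell number change: cells counted by Cell Tracker Red CMTPX staining in the red channel.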 The following applies: BODIPY lipid droplet fluorescence, 18-24 h; for cell number change: measured here: cell count max response, cells fed with added oleic acid. Put shortly:
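Drosophila S3 cells got compounds at several concentrations plus oleic acid (400 uM solution). Laser-scanning cytometry with 488 nm excitation read lipid droplets at 500-530 nm and cells at 575-640 nm. Percent activity was relative to 20 uM Triacsin C.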
On the technique in general: Quantitative high-throughput screening tests each substance at several concentrations.

[1] abbreviates: measured here: cell number channel AC50, cells fed with added oleic acid.
Where [2] appears, read: measured here: lipid fluorescence (Fed channel) AC50, cells fed with added oleic acid.

This is one part of the list. These are further read-outs of the screen, such as a control signal, another cell line or another target. No call is given for them. Compounds called inactive in the main read-out are mostly missing here. The note in brackets gives the kind of curve behind each potency; many fits are weak.

`Cn1c(=O)c2c(nc(SCC(=O)O)n2Cc2cccc(C(F)(F)F)c2)n(C)c1=O`: the AC50 under setting [1] was 0.58 µM [falling, single point].

Consider `Cc1csc(SCC(=O)Nc2sccc2C(N)=O)n1`, for which the cell number change came to 43%. For the same molecule, under setting [1], the half-maximal activity concentration (AC50) was 8.2 µM [rising, partial curve]. The AC50 under setting [2] is 0.461 µM [rising, partial curve, poor fit].

For the molecule `O=C(Nc1ccc2c(c1)OCCO2)c1ccc(CN2CCOCC2)cc1`, the AC50 under setting [1] is 0.103 µM [falling, full curve, poor fit]. With `CCOC(=O)c1cnc(SCc2nc(N)nc(Nc3ccccc3)n2)nc1N`, the cell number change was 3.28%. Besides, the AC50 under setting [2] was 2.31 µM [rising, full curve]. For `CCOC(=O)c1sc(NC(=O)CSc2ccccn2)c(C#N)c1C`, the cell number change was -52.8%. The AC50 under setting [1] was 14.6 µM [falling, single point]. Besides, the AC50 under setting [2] was 29.1 µM [rising, single point]. With `CCC(C)N(CC(=O)NCc1ccc(OC)cc1)C(=O)c1csnn1` (stereo unspecified), the cell number change came to 1.63%. Further, the AC50 under setting [2] is 0.259 µM [falling, full curve, poor fit]. As for `O=C(O)c1c[nH]c(=O)c2ccccc12`, the cell number change is -18.2%. Regarding `COc1ccc(C(C)=O)cc1COC(=O)c1ccc2c(c1)OCO2`, the cell number change was -15.4%. The AC50 under setting [2] is 0.326 µM [rising, full curve, poor fit]. Turning to `Cc1ccc(CCNC(=O)C2CCCN(C(=O)N(C)C)C2)cc1` (stereo unspecified), the cell number change was found to be 15.8%. Also, under setting [2], the AC50 was 0.00517 µM [rising, full curve, poor fit]. With `COc1ccc(S(=O)(=O)N/N=C(/C)c2cccc(NC(=O)c3ccccc3Cl)c2)cc1`, the cell number change turned out to be 0.594%. Under setting [1], the concentration at half-maximal activity (AC50) is 0.58 µM [rising, single point]. Besides, the AC50 under setting [2] is 32.6 µM [falling, partial curve, poor fit]. As to `COc1cc2ccccc2cc1C(=O)N(CCN(C)C)c1nc2c(OC)ccc(OC)c2s1`, the cell number change turned out to be 7.03%. Besides, under setting [2], the concentration at half-maximal activity (AC50) is 20.6 µM [falling, single point]. For the molecule `CCOC(=O)C1=C(C)NC(=O)NC1c1ccc(OCC(=O)OC)c(OC)c1` (stereo unspecified), the cell number change stood at 13.7%. In addition, the concentration at half-maximal activity (AC50) under setting [2] is 6.51 µM [falling, single point]. In the case of `OCCn1c(SCCOc2ccccc2)nc2ccccc21`, the AC50 under setting [2] was 0.58 µM [falling, single point].

With `CCCCc1ccc(N2C(=O)[C@@H]3C(CC(N)=O)NC4(C(=O)Nc5ccc(F)cc54)[C@@H]3C2=O)cc1` (stereo partly specified), the cell number change is -22.6%. As for `Cn1c(=NC(=O)c2cnccn2)sc2ccccc21`, the cell number change was -11.7%. Further, the concentration at half-maximal activity (AC50) under setting [2] is 9.2 µM [rising, single point]. As for `Cc1ccc(NC2=NC(c3ccc(C)cc3)n3c(nc(C)cc3=O)N2)cc1` (stereo unspecified), the cell number change turned out to be 1.82%. The AC50 under setting [2] was 29.1 µM [rising, single point]. In the case of `CCCCc1nc2ccc(S(=O)(=O)O)cc2[nH]1`, the cell number change is -22.8%. Moreover, the half-maximal activity concentration (AC50) under setting [2] was 29.1 µM [falling, single point].

Take `Cn1cc(SCC(=O)NCc2ccc3c(c2)OCO3)c2ccccc21`: the cell number change is 62.5%. Under setting [1], the AC50 was 16.4 µM [rising, partial curve, poor fit]. Further, the half-maximal activity concentration (AC50) under setting [2] is 2.06 µM [falling, partial curve]. With `O=C(O)c1cccc(S(=O)(=O)N2CCC(n3nnc4cc(C(F)(F)F)ccc43)CC2)c1`, the cell number change is 41%. Also, the AC50 under setting [1] was 4.11 µM [rising, partial curve]. Take `CC(=NCC1CCNCC1)C1=C(O)CC(C)(C)CC1=O`: the cell number change was -206%. The AC50 under setting [1] is 29.1 µM [falling, partial curve]. Moreover, under setting [2], the AC50 is 0.00731 µM [falling, full curve, poor fit].

Turning to `O=C(O)CCc1ccc(-c2ccccc2)n1-c1ccc(C(=O)O)cc1`, the cell number change is -12.4%.

Turning to `COc1ccc(C2SCC(=O)N2c2nnc(C34CC5CC(CC(C5)C3)C4)s2)cc1` (stereo unspecified), the cell number change was determined as 13.1%. Moreover, under setting [2], the AC50 was 6.51 µM [rising, single point]. Turning to `CSc1nsc(SC)c1NC(=O)N1CCCCC1`, the cell number change was -47.7%. For the same molecule, the concentration at half-maximal activity (AC50) under setting [1] is 2.59 µM [falling, full curve, poor fit]. Besides, the AC50 under setting [2] was 1.03 µM [falling, full curve].

With `O=C(CSc1nnc(-c2cccs2)o1)NCC1CN(Cc2ccccc2)CCO1` (stereo unspecified), the cell number change is -3.05%. Also, the AC50 under setting [2] is 11.6 µM [rising, partial curve].

On to `Cc1ccc(OCCCC(=O)N(C)CC(=O)Nc2ccccc2Cl)cc1`, for which the AC50 under setting [2] is 0.116 µM [falling, full curve, poor fit]. In the case of `O=C(Cc1ccc(Br)cc1)NC1CCCCC1`, the AC50 under setting [2] is 25.9 µM [falling, partial curve, poor fit]. Consider `COc1cc(OC)cc(C(=O)NNC(=O)CN2C(=O)NC3(CCCC3)C2=O)c1`, for which the cell number change was found to be 10.7%. In addition, the half-maximal activity concentration (AC50) under setting [2] is 13 µM [rising, partial curve, poor fit].

With `Cc1cc(N=Nc2ccc3ccccc3c2)ccc1O`, the cell number change was -24.6%.

For `COc1ccc(N2CCN(CCC(O)c3ccc4ccccc4c3)CC2)cc1` (stereo unspecified), the cell number change came out at 1.18%. In addition, under setting [2], the AC50 was 6.51 µM [falling, single point]. On to `CC1CCCc2sc3nc(N4CCN(CCO)CC4)n4ncnc4c3c21` (stereo unspecified), for which the cell number change is -11.2%. The AC50 under setting [2] is 0.0651 µM [falling, full curve, poor fit]. `COc1cc2c(cc1OC)C(C)N(S(=O)(=O)c1cn(C)cn1)CC2` (stereo unspecified): the cell number change came to 6.48%. Moreover, under setting [2], the AC50 is 0.0517 µM [falling, full curve, poor fit].

Turning to `O=C1OC(OC(=O)c2ccccc2Br)C(N2CCOCC2)=C1Cl` (stereo unspecified), the cell number change is -5.92%. Also, under setting [2], the half-maximal activity concentration (AC50) was 2.59 µM [falling, full curve]. On to `COc1ccccc1-c1nn(Cc2ccccc2)cc1/C=C/C(=O)O`, for which the cell number change is -14.2%. For the same molecule, the AC50 under setting [2] was 0.0058 µM [falling, full curve, poor fit]. Turning to `Cn1c(N)c(Sc2ccccc2[N+](=O)[O-])c(=O)n(C)c1=O`, the cell number change is 5.41%. Further, the AC50 under setting [2] was 1.84 µM [rising, partial curve]. In the case of `CS(=O)(=O)N(CC(=O)NCCC1=CCCCC1)C1CCCCC1`, the cell number change was 2.56%. The AC50 under setting [2] was 0.259 µM [falling, partial curve, poor fit]. `COc1cc(-c2nc(-c3ccc(NC(=O)c4ccc5c(c4)OCO5)cc3)no2)cc(OC)c1OC`: the cell number change was -75.1%. Besides, under setting [1], the AC50 was 11.6 µM [falling, partial curve]. For the same molecule, under setting [2], the AC50 was 20.6 µM [falling, single point]. On to `FC(F)Oc1ccc(-n2cc(-c3ccccc3)[n+]3c2CCCCC3)cc1`, for which the cell number change came to 10.6%. Besides, the AC50 under setting [2] is 0.731 µM [falling, single point]. For the molecule `COc1cccc(CNC(=O)C2CCCN(S(=O)(=O)c3ccc4c(c3)C(C)(C)C(=O)N4C)C2)c1` (stereo unspecified), the cell number change was 23.1%. In addition, the concentration at half-maximal activity (AC50) under setting [2] is 14.6 µM [rising, partial curve]. For the molecule `COc1cc(CC(NC(C)=O)C(=O)NC2CCN(S(=O)(=O)c3ccc(NC(C)=O)cc3)CC2)cc(OC)c1` (stereo unspecified), the cell number change worked out at 40.3%. The AC50 under setting [1] was 6.51 µM [rising, full curve, poor fit]. On to `C=C1c2ccccc2NC(=O)N1c1ccc(C)cc1`, for which, under setting [1], the AC50 is 0.0517 µM [falling, full curve, poor fit]. `Cc1cccc(NC(=O)N2CCCC(CNC(=O)c3ccccc3Cl)C2)c1C` (stereo unspecified): under setting [2], the AC50 is 2.31 µM [falling, full curve]. On to `COC(=O)c1ccc(CSc2nc3sc(C(=O)O)c(C)c3c(=O)[nH]2)cc1`, for which the cell number change was -0.695%. In addition, the half-maximal activity concentration (AC50) under setting [2] is 2.31 µM [falling, partial curve]. `CCN(CC)S(=O)(=O)c1ccc(NC2c3ncccc3C(=O)N2Cc2ccccc2)cc1` (stereo unspecified): the cell number change is -17.9%. Under setting [2], the half-maximal activity concentration (AC50) is 9.2 µM [falling, partial curve, poor fit].

Consider `CCOC(=O)c1c(CN2CCOCC2)n(-c2ccccc2)c2cc(Br)c(OC)cc12`, for which the cell number change worked out at 57.2%. For the same molecule, the AC50 under setting [1] is 1.46 µM [rising, full curve]. Besides, under setting [2], the half-maximal activity concentration (AC50) was 2.31 µM [rising, partial curve].

`COc1ccc(NS(=O)(=O)c2c(C)cc(C)cc2C)cc1`: the cell number change is -22.5%. Moreover, the AC50 under setting [2] is 0.58 µM [rising, single point].

Regarding `CSc1nc(SCCO)c2sc3nc(-c4ccco4)c4c(c3c2n1)CC(C)(C)OC4`, the cell number change was -16.3%. Under setting [1], the AC50 is 0.146 µM [rising, full curve, poor fit]. For `COc1cccc(OC)c1OCCCSc1nc(C)cc(=O)[nH]1`, the cell number change was 8.77%. In addition, the half-maximal activity concentration (AC50) under setting [2] was 14.6 µM [rising, partial curve]. Turning to `O=C(Cn1ccn(-c2ccc(F)c(Cl)c2)c(=O)c1=O)NCCc1ccccc1`, the cell number change came out at 8.08%. As to `Cc1[nH]c2ccccc2c1NC(=O)CN1CCN(c2cccc(C(F)(F)F)c2)CC1`, the cell number change was -42.6%. Besides, the concentration at half-maximal activity (AC50) under setting [1] is 29.1 µM [falling, single point]. Also, the AC50 under setting [2] was 29.1 µM [falling, single point]. As for `COc1ccc(OC)c(NC(=O)Nc2cnccn2)c1`, the cell number change is -13.4%. Further, the AC50 under setting [2] was 29.1 µM [falling, single point]. As for `CCCn1nc(C(=O)Nc2nc3ccccc3[nH]2)c2ccccc2c1=O`, the cell number change turned out to be 44%. Moreover, under setting [1], the AC50 is 18.4 µM [rising, single point]. Further, under setting [2], the concentration at half-maximal activity (AC50) was 4.61 µM [rising, partial curve, poor fit]. With `CC1CCN(c2ccc(S(=O)(=O)NC3=NCCCCC3)cc2[N+](=O)[O-])CC1`, the AC50 by setting is: under setting [1], 0.0517 µM [rising, partial curve, poor fit]; under setting [2], 0.0517 µM [rising, partial curve, poor fit]. For the molecule `Cc1[nH]nc(Nc2ccccc2)c1[N+](=O)[O-]`, the cell number change came out at 83.4%. Turning to `Cc1cc([N+](=O)[O-])cnc1NC(C)c1ccccc1` (stereo unspecified), the cell number change is 11.5%. Also, the AC50 under setting [2] is 0.0517 µM [falling, full curve, poor fit].

In the case of `Cc1ccc2c(c1)CCCN2C(=O)c1cc(C)c(C)s1`, the cell number change was -49.5%. Further, the half-maximal activity concentration (AC50) under setting [1] was 13 µM [falling, partial curve].

As for `Fc1ccc(C2CC(c3ccccc3)Nc3ncnn32)cc1` (stereo unspecified), the cell number change is -0.552%. In addition, under setting [2], the half-maximal activity concentration (AC50) is 0.00461 µM [rising, full curve, poor fit]. Take `Cc1ccc(-c2nnc3c4ccccc4c(C)nn23)cc1S(=O)(=O)N1CCN(CCO)CC1`: the AC50 reads like this: under setting [1], 0.206 µM [rising, full curve, poor fit]; under setting [2], 0.206 µM [rising, full curve, poor fit].
